# Data: patent US20220298213A1, “IN VIVO ENGINEERED CEREBLON PROTEIN” (Vividion Therapeutics, Inc., priority 2018, published 2022)
# Test: Global promiscuity, global (TMT) experiment
# Conditions: targets where 500 μM compound inhibits probe labeling by greater than 40% after 1 hour incubation
row,SMILES,Global Promiscuity
1,C=CC(=O)N1CCC(S(=O)(=O)c2cccc(-c3ccccc3OC)c2)CC1,0.2775
2,C=CC(=O)N1CC(Oc2cccc(-c3ccccc3OC)c2)C1,0.863
3,C=CC(=O)N1CC[C@@H](Oc2ccccc2)[C@H](F)C1,0.1528
4,C=CC(=O)N1CC[C@H](Oc2ccccc2)[C@H](F)C1,0.09463
5,C=CC(=O)N1CCC(Oc2cc(C#N)cc(-c3ccccc3OC)c2)CC1 [drawing 221],0.05484
6,C=CC(=O)N1CCC(Oc2cc(C(N)=O)cc(-c3ccccc3OC)c2)CC1 [drawing 222],0.02643
7,C=CC(=O)N1CC(Oc2ccc(Cl)cc2)C1 [drawing 224],0.7851
